For experiment [1], the target named is T1, GST-human loricrin_(1–315) (human) (UniProt P23490).
T1 sequence: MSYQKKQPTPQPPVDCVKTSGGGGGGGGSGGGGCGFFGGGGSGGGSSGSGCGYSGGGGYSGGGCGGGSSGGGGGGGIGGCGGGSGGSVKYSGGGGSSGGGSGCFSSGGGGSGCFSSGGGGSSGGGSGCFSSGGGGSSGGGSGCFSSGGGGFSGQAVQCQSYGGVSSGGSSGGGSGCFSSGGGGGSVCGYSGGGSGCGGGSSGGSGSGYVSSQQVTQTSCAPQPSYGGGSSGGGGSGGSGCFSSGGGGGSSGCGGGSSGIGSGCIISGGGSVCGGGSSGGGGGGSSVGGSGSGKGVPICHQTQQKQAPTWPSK
In words: bacterial adherence to immobilised protein (crystal violet); GST-tagged protein (1 µM or 0.5 µM) coated on microtitre wells, blocked with BSA; bacteria (OD600 = 1.0 in PBS) 2 h at 37°C; absorbance at 570 nm; only the target purified.

Chains of the proteins cited; added tags and fusions are not shown. Lines headed by an entry give the natural chain unless they say otherwise; changes in a name come on top.
UniProt O86476: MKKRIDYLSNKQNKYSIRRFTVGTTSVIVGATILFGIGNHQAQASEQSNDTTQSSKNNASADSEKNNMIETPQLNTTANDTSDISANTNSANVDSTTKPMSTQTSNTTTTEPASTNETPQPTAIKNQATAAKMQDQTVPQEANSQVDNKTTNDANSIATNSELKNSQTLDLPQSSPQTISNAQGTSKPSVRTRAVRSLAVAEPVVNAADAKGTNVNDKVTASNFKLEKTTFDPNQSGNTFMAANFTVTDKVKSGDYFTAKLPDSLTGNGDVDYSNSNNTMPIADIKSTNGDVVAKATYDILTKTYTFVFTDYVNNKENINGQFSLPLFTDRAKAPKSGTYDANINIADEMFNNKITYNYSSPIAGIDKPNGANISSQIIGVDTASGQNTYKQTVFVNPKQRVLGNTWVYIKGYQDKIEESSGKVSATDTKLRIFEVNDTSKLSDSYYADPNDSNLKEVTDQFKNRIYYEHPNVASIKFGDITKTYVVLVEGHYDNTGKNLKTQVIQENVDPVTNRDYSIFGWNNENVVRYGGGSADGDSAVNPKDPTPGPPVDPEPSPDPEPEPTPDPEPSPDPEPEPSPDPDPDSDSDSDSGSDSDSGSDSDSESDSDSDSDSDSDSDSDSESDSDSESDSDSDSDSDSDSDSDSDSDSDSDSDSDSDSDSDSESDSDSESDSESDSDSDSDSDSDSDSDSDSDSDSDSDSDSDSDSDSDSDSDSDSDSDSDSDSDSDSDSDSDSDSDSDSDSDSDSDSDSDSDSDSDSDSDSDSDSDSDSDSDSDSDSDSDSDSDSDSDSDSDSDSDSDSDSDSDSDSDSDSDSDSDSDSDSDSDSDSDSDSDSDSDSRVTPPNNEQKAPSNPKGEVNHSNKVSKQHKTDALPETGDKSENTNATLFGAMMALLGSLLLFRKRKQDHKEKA

In experiment [2] the target is T2, GST-murine loricrin_(1–480) (murine) (UniProt P18165).
T2 sequence: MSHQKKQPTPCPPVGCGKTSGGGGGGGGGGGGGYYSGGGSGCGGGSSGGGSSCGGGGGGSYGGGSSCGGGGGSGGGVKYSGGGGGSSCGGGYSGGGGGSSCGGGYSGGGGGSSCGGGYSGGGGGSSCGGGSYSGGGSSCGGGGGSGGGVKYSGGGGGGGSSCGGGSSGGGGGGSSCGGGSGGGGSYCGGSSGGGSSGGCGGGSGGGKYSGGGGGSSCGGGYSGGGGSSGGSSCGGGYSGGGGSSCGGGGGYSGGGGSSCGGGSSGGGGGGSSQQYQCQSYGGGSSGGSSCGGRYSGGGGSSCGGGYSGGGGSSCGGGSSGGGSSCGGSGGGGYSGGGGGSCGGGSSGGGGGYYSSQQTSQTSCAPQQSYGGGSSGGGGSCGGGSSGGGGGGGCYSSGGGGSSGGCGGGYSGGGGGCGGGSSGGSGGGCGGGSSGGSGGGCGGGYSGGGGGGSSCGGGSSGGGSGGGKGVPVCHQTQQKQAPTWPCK
Described as above.

The target of experiment [3] is T3, GST-murine K10_(454–570) (murine) (UniProt P02535).
T3 sequence: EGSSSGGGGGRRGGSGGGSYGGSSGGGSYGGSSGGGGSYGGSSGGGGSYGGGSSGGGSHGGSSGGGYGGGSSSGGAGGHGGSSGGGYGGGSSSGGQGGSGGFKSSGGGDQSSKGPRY
The description is as above.

In experiment [4] the target is T1, GST-human loricrin_(1–315) (human). In words: bacterial adherence to immobilised protein (crystal violet); S. aureus Newman (1×10^8 CFU) pre-incubated with GST or HK10 (2 µM) in PBS 30 min at room temperature, then 90 min at room temperature on loricrin-coated wells (0.5 µM); only the target purified.
For experiment [5] the target is unchanged. As to the kind of experiment: ELISA; loricrin-coated wells (0.5 µM); rClfB N23_(201–542) (3 µM) pre-incubated with GST, HK10 or L2v (14 µM) in PBS 1 h at room temperature, then 1 h at 37°C on the wells; detected with HRP-conjugated anti-His antibodies; both purified.

Results are given in words; binding and its absence hold for the method and conditions named. Some binding calls cover weakened binding; strength is not graded here. Tags and fused reporters may be left off the sequences shown.

Three substances from PMC3531522, “Nasal Colonisation by Staphylococcus aureus Depends upon Clumping Factor B Binding to the Squamous Epithelial Cell Envelope Protein Loricrin” (PLoS Pathogens, 2012) can be followed below.

In the case of “Clumping factor B (ClfB) expressed on the surface of L. lactis (from UniProt O86476 45-877)”, the binding result in experiment [1], in experiment [2] and in experiment [3] was “binds” throughout.

For “Clumping factor B (ClfB) on the surface of S. aureus Newman (from UniProt O86476 45-877)”, the binding entry in experiment [4], in experiment [1], in experiment [2] and in experiment [3] was “binds” throughout.

As to “Recombinant ClfB N2N3 (rClfB_(201–542)) (from UniProt O86476 201-542) (domain or fragment)”, the binding entry in experiment [5] is given as “binds”.
